These are literature values, as cited in US20240315989A1 (priority 2021, published 2024).

Chains of the proteins cited; added tags and fusions are not shown.
UniProt Q9R0C9, whole entry: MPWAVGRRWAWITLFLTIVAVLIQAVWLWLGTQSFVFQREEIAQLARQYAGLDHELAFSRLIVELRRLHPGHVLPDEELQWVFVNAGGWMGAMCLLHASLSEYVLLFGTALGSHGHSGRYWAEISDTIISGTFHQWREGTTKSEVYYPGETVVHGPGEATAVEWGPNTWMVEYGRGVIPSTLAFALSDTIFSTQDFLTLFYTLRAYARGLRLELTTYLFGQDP

In the data set the target is sigma-1 receptors (Rattus norvegicus, UniProt Q9R0C9). The settings on record: cited from earlier work.

Broadly, the Ki is the equilibrium dissociation constant of an inhibitor or competing ligand from its target. Take `CN[C@H]1CC[C@@H](c2ccc(Cl)c(Cl)c2)c2ccccc21` [sertraline]: the Ki was 0.0316 µM.
